Results deposited as PubChem BioAssay AID1224830 (NIAID, 2016)
Purpose: 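Regulators of TLR4 signalling towards TNF-alpha in macrophage-like cells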 (primary screen). Cell system: human THP-1 monocytic leukaemia cells, TNF dual-luciferase reporter clone, PMA-differentiated to macrophage-like cells. Knock-down reagent: siRNA pool against human genes, 50 nM. Duration: LPS for 4 h, given about 3 days after siRNA transfection. Challenge: bacterial LPS (TLR4 ligand), 10 ng/ml. Measured: 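Ratio of firefly to renilla light, scaled to the plate median and expressed as a robust z-score per replicate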. Direction: TNF reporter robust z-score: higher = stronger TNF reporter response to LPS. Rule for the call: 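a well is active when its z-score exceeds 2.8 or falls below -1.5; control wells carry no call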.
This is an unselected part of about 18,000 reagents. About 2,900 of all reagents (16%) were called active. 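Calls are made per well; low scores hint the gene aids the LPS response, high scores that it dampens it.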 Repeated entries: four replicate wells of each siRNA pool.

target | TNF reporter robust z-score | activity call
ZNF502 (zinc finger protein 502) | -0.68 | inactive
ZNF502 (zinc finger protein 502) | -0.47 | inactive
ZNF502 (zinc finger protein 502) | -0.54 | inactive
CD40LG (CD40 ligand) | 0.35 | inactive
CD40LG (CD40 ligand) | -0.1 | inactive
CD40LG (CD40 ligand) | -0.98 | inactive
CD40LG (CD40 ligand) | -1.36 | inactive
SCARA5 (scavenger receptor class A member 5) | -1.46 | inactive
SCARA5 (scavenger receptor class A member 5) | -0.02 | inactive
SCARA5 (scavenger receptor class A member 5) | -0.68 | inactive
SCARA5 (scavenger receptor class A member 5) | -0.91 | inactive
STAT5B (signal transducer and activator of transcription 5B) | -0.46 | inactive
STAT5B (signal transducer and activator of transcription 5B) | 0.08 | inactive
STAT5B (signal transducer and activator of transcription 5B) | -0.5 | inactive
STAT5B (signal transducer and activator of transcription 5B) | -0.44 | inactive
DUSP14 (dual specificity phosphatase 14) | 0.21 | inactive
DUSP14 (dual specificity phosphatase 14) | 0.69 | inactive
DUSP14 (dual specificity phosphatase 14) | -0.24 | inactive
DUSP14 (dual specificity phosphatase 14) | -0.04 | inactive
TAS2R39 (taste 2 receptor member 39) | 0.59 | inactive
TAS2R39 (taste 2 receptor member 39) | 1.4 | inactive
TAS2R39 (taste 2 receptor member 39) | 0.08 | inactive
TAS2R39 (taste 2 receptor member 39) | 0.57 | inactive
NHLRC4 (NHL repeat containing 4) | -0.38 | inactive
NHLRC4 (NHL repeat containing 4) | -0.29 | inactive
NHLRC4 (NHL repeat containing 4) | -0.5 | inactive
NHLRC4 (NHL repeat containing 4) | -0.51 | inactive
DNAJC5B (DnaJ heat shock protein family (Hsp40) member C5 beta) | -0.3 | inactive
DNAJC5B (DnaJ heat shock protein family (Hsp40) member C5 beta) | 1.28 | inactive
DNAJC5B (DnaJ heat shock protein family (Hsp40) member C5 beta) | 1.77 | inactive
DNAJC5B (DnaJ heat shock protein family (Hsp40) member C5 beta) | 0.29 | inactive
STK40 (serine/threonine kinase 40) | 2.67 | inactive
STK40 (serine/threonine kinase 40) | 1.52 | inactive
STK40 (serine/threonine kinase 40) | 1.15 | inactive
STK40 (serine/threonine kinase 40) | -0.68 | inactive
HYOU1 (hypoxia up-regulated 1) | -0.58 | inactive
HYOU1 (hypoxia up-regulated 1) | 0.5 | inactive
HYOU1 (hypoxia up-regulated 1) | -0.23 | inactive
HYOU1 (hypoxia up-regulated 1) | -0.49 | inactive
GAS8-AS1 (GAS8 antisense RNA 1) | -0.76 | inactive
GAS8-AS1 (GAS8 antisense RNA 1) | 0.19 | inactive
GAS8-AS1 (GAS8 antisense RNA 1) | 0 | inactive
GAS8-AS1 (GAS8 antisense RNA 1) | -0.01 | inactive
SLC25A12 | -0.57 | inactive
SLC25A12 | -0.53 | inactive
SLC25A12 | -1.04 | inactive
SLC25A12 | -0.48 | inactive
CELF6 (CUGBP Elav-like family member 6) | -0.54 | inactive
CELF6 (CUGBP Elav-like family member 6) | -0.43 | inactive
CELF6 (CUGBP Elav-like family member 6) | -0.63 | inactive
RPGRIP1L (RPGRIP1 like) | -1.42 | inactive
RPGRIP1L (RPGRIP1 like) | -0.77 | inactive
RPGRIP1L (RPGRIP1 like) | -1.12 | inactive
RPGRIP1L (RPGRIP1 like) | -1.48 | inactive
ZIC2 (Zic family zinc finger 2) | -0.8 | inactive
ZIC2 (Zic family zinc finger 2) | -0.54 | inactive
ZIC2 (Zic family zinc finger 2) | -1.18 | inactive
ZIC2 (Zic family zinc finger 2) | 0.24 | inactive
OR12D2 (olfactory receptor family 12 subfamily D member 2) | -0.56 | inactive
OR12D2 (olfactory receptor family 12 subfamily D member 2) | -0.21 | inactive
OR12D2 (olfactory receptor family 12 subfamily D member 2) | -0.14 | inactive
OR12D2 (olfactory receptor family 12 subfamily D member 2) | 0.04 | inactive
IL3 (interleukin 3) | -1.52 | active
IL3 (interleukin 3) | -0.88 | inactive
IL3 (interleukin 3) | -1.38 | inactive
IL3 (interleukin 3) | -1.67 | active

17 of these entries in another layout.
target	TNF reporter robust z-score	activity call
STK40 (serine/threonine kinase 40)	1.52	inactive
STK40 (serine/threonine kinase 40)	1.15	inactive
STK40 (serine/threonine kinase 40)	-0.68	inactive
HYOU1 (hypoxia up-regulated 1)	-0.58	inactive
HYOU1 (hypoxia up-regulated 1)	0.5	inactive
HYOU1 (hypoxia up-regulated 1)	-0.23	inactive
HYOU1 (hypoxia up-regulated 1)	-0.49	inactive
GAS8-AS1 (GAS8 antisense RNA 1)	-0.76	inactive
GAS8-AS1 (GAS8 antisense RNA 1)	0.19	inactive
GAS8-AS1 (GAS8 antisense RNA 1)	0	inactive
GAS8-AS1 (GAS8 antisense RNA 1)	-0.01	inactive
SLC25A12	-0.57	inactive
SLC25A12	-0.53	inactive
SLC25A12	-1.04	inactive
SLC25A12	-0.48	inactive
CELF6 (CUGBP Elav-like family member 6)	-0.54	inactive
CELF6 (CUGBP Elav-like family member 6)	-0.43	inactive

The list goes on:
target | TNF reporter robust z-score | activity call
MYOZ2 (myozenin 2) | -0.04 | inactive
MYOZ2 (myozenin 2) | -0.29 | inactive
MYOZ2 (myozenin 2) | 0.8 | inactive
MYOZ2 (myozenin 2) | -0.09 | inactive
PRUNE1 (prune exopolyphosphatase 1) | -0.13 | inactive
PRUNE1 (prune exopolyphosphatase 1) | -0.78 | inactive
PRUNE1 (prune exopolyphosphatase 1) | 0.72 | inactive
PRUNE1 (prune exopolyphosphatase 1) | 0.02 | inactive
FTMT (ferritin mitochondrial) | 1.39 | inactive
FTMT (ferritin mitochondrial) | 4.54 | active
FTMT (ferritin mitochondrial) | 1.72 | inactive
FTMT (ferritin mitochondrial) | 3.85 | active
NRM (nurim) | 1.25 | inactive
NRM (nurim) | -0.3 | inactive
NRM (nurim) | -0.34 | inactive
NRM (nurim) | -0.13 | inactive
PLEKHM1P1 | 1.68 | inactive
PLEKHM1P1 | 2.74 | inactive
PLEKHM1P1 | 4.55 | active
PLEKHM1P1 | 1.33 | inactive
TBR1 (T-box brain transcription factor 1) | -0.02 | inactive
TBR1 (T-box brain transcription factor 1) | -0.03 | inactive
TBR1 (T-box brain transcription factor 1) | -0.63 | inactive
TBR1 (T-box brain transcription factor 1) | 0.88 | inactive
NKAPL (NFKB activating protein like) | 0.05 | inactive
NKAPL (NFKB activating protein like) | 2.56 | inactive
NKAPL (NFKB activating protein like) | -0.2 | inactive
NKAPL (NFKB activating protein like) | 0.31 | inactive
OR4D5 (olfactory receptor family 4 subfamily D member 5) | -0.05 | inactive
OR4D5 (olfactory receptor family 4 subfamily D member 5) | 0.18 | inactive
OR4D5 (olfactory receptor family 4 subfamily D member 5) | 0.17 | inactive
OR4D5 (olfactory receptor family 4 subfamily D member 5) | 0.15 | inactive
HMGB2 (high mobility group box 2) | 2.02 | inactive
HMGB2 (high mobility group box 2) | -0.13 | inactive
HMGB2 (high mobility group box 2) | 2.38 | inactive
HMGB2 (high mobility group box 2) | 4.16 | active
CEP55 (centrosomal protein 55) | -0.01 | inactive
CEP55 (centrosomal protein 55) | 1.61 | inactive
CEP55 (centrosomal protein 55) | 1.19 | inactive
CEP55 (centrosomal protein 55) | 2.6 | inactive
DAPP1 (dual adaptor of phosphotyrosine and 3-phosphoinositides 1) | -0.44 | inactive
DAPP1 (dual adaptor of phosphotyrosine and 3-phosphoinositides 1) | 0.38 | inactive
DAPP1 (dual adaptor of phosphotyrosine and 3-phosphoinositides 1) | 0.55 | inactive
DAPP1 (dual adaptor of phosphotyrosine and 3-phosphoinositides 1) | -0.34 | inactive
